The other results are listed elsewhere or left out.
What was measured:
Assay in all cases: log2 fold change, soluble protein after heating vs DMSO (PISA); higher = thermal stabilisation; K562 cells, 10 uM, 30 min; active = over 0.2 and 3.5 SD of the protein, either way, in both replicates (recomputed)
saracatinib = compound: CN1CCN(CCOc2cc(OC3CCOCC3)c3c(Nc4c(Cl)ccc5c4OCO5)ncnc3c2)CC1 [saracatinib]
Method in brief: (§1)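 K562 cells at 2×10^6 cells/mL were given 10 μM compound for 30 min. Aliquots then went through 3 min of heating across 48°C-58°C, were pooled, and were extracted in PBS with 0.5% NP-40 at 4°C, and the supernatant after 21,000xg for 90 min was quantified by TMTpro 16plex LC-MS/MS with channel sums equalised. Thermal stability relative to control samples, from duplicates, is given as log2 fold change.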

Amino acid sequences for entries named in this document (tags omitted). A change or cut given only in a name is not applied to a line headed by its entry.
UniProt E9PAV3, whole entry, looked up: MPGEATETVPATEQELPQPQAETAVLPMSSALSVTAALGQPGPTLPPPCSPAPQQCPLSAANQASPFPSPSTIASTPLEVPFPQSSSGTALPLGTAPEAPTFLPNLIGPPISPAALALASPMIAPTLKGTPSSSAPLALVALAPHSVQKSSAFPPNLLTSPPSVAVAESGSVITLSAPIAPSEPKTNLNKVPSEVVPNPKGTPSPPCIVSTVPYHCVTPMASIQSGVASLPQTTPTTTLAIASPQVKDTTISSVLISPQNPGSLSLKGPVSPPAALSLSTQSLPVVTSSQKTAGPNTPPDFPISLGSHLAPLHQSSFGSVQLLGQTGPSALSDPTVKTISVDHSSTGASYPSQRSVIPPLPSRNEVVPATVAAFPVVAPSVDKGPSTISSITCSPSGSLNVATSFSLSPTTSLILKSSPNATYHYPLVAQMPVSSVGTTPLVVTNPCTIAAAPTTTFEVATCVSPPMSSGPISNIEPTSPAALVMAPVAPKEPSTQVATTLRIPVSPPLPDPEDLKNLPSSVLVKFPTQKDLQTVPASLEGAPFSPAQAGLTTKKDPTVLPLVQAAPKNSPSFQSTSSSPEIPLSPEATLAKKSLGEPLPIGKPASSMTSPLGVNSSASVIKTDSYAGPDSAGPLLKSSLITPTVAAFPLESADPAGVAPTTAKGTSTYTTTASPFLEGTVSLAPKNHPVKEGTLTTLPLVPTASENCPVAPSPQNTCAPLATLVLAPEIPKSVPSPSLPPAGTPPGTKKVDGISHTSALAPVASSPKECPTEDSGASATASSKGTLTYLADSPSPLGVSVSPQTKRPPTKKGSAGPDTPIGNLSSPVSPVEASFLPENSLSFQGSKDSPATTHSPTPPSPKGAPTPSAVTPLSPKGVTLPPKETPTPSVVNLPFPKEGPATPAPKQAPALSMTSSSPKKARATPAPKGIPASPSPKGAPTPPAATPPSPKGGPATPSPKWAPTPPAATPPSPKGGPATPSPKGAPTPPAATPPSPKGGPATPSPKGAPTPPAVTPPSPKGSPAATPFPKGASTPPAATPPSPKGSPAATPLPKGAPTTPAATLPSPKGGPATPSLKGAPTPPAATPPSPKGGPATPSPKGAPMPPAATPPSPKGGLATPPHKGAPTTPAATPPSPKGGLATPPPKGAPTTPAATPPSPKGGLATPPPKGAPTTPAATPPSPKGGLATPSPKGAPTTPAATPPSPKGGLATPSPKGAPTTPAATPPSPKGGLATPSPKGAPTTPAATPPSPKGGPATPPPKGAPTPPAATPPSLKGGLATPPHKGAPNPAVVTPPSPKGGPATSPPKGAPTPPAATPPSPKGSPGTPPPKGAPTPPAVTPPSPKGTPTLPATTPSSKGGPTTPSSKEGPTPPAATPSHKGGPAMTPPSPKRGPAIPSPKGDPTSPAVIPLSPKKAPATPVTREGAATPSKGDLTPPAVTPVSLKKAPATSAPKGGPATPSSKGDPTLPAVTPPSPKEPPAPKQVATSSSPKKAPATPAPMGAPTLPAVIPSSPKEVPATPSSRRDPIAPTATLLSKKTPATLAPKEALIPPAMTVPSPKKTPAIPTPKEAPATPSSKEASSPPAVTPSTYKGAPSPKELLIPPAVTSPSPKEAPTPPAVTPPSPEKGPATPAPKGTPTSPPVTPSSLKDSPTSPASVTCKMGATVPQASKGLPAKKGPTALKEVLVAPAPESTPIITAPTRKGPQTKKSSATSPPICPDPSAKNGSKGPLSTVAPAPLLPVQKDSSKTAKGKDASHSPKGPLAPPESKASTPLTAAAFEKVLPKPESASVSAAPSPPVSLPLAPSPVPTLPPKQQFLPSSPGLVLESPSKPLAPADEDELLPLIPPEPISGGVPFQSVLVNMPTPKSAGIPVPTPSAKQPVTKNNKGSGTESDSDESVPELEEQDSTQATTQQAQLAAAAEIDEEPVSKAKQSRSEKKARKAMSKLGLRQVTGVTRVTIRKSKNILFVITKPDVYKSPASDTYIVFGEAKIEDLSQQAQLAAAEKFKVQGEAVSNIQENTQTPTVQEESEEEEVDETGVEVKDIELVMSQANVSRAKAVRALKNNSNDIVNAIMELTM
UniProt Q9NR45: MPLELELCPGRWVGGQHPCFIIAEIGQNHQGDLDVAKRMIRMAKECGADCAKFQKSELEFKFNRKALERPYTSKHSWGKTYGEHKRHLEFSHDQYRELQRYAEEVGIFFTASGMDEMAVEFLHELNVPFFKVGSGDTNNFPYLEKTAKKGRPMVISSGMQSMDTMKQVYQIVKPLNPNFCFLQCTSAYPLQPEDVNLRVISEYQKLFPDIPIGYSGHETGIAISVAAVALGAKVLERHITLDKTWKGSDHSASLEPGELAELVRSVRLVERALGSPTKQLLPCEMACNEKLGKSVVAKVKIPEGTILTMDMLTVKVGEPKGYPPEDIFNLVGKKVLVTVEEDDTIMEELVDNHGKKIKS
UniProt Q9BPX3, whole entry, looked up: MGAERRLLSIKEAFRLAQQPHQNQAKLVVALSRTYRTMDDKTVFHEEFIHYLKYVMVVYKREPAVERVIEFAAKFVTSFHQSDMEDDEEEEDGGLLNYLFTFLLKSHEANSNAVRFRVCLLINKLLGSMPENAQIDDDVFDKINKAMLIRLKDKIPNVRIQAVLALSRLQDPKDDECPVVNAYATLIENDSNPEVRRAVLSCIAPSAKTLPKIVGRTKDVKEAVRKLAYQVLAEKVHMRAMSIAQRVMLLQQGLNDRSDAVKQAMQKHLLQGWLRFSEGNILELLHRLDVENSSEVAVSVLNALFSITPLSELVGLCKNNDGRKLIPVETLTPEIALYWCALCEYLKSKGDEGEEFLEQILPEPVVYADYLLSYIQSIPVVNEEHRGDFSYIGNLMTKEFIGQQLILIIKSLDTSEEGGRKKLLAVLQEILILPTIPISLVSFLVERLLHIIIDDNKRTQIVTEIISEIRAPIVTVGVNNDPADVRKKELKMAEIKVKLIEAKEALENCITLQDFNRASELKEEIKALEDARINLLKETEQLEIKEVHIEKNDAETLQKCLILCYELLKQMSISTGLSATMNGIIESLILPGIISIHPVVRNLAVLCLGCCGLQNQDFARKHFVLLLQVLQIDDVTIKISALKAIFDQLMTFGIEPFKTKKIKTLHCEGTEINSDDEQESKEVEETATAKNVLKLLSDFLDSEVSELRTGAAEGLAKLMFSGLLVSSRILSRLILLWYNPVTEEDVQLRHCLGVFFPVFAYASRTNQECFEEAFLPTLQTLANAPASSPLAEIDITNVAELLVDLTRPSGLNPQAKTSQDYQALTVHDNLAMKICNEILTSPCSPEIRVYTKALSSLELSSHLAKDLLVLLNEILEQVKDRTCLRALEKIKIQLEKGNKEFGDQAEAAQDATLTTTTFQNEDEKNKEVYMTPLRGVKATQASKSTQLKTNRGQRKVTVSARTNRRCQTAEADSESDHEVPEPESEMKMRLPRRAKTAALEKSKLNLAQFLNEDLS
UniProt Q6NZ67, whole entry, looked up: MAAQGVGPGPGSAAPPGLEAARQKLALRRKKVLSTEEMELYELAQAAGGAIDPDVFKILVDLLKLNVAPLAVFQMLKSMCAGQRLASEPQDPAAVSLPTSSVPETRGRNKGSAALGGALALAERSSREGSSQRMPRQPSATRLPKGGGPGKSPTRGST
UniProt O95182, whole entry, looked up: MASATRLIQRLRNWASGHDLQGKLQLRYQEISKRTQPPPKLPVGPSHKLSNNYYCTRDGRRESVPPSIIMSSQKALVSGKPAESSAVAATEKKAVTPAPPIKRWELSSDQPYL
UniProt P49821, whole entry, looked up: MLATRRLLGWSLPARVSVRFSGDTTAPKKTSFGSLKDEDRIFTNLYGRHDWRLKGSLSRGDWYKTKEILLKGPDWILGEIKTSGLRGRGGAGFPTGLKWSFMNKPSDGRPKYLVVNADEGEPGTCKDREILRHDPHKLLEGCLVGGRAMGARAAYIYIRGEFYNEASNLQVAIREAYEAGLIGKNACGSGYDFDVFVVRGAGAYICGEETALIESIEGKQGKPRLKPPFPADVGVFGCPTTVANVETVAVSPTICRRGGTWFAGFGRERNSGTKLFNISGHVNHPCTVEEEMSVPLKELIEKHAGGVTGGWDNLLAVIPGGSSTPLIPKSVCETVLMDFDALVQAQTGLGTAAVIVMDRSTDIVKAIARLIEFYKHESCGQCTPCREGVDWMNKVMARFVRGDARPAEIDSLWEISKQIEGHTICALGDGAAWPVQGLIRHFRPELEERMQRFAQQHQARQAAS
UniProt O43678, whole entry, looked up: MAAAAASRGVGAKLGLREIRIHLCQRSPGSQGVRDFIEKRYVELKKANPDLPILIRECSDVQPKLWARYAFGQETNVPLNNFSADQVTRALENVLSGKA
UniProt O75251, whole entry, looked up: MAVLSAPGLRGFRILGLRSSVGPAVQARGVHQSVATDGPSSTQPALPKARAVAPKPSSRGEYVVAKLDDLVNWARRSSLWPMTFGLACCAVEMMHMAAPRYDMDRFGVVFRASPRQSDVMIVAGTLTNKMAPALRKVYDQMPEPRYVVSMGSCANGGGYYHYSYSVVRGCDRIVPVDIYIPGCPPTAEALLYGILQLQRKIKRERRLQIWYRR
UniProt O43181, whole entry, looked up: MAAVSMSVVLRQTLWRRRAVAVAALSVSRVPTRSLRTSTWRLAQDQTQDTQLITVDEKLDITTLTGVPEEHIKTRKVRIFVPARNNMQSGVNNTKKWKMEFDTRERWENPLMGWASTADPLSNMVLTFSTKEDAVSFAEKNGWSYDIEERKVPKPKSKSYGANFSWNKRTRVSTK
UniProt Q8WUY8: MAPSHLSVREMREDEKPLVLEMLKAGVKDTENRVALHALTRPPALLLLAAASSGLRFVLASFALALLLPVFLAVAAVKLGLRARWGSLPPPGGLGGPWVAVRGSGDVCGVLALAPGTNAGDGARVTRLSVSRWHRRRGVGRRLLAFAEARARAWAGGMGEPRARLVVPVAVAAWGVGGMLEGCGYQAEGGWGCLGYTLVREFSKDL
UniProt Q99747: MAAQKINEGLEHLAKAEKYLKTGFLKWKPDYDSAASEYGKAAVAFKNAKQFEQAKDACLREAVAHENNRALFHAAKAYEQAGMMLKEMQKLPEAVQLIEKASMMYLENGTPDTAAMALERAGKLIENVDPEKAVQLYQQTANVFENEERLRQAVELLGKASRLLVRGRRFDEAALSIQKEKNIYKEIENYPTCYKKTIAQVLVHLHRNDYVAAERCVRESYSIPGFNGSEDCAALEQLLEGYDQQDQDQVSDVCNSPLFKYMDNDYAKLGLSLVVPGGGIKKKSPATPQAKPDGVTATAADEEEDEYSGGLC
UniProt P56556, whole entry, looked up: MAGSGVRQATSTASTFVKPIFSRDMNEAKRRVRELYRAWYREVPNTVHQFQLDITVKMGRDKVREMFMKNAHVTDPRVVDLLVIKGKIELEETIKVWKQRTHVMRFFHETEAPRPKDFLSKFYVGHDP
UniProt P17568, whole entry, looked up: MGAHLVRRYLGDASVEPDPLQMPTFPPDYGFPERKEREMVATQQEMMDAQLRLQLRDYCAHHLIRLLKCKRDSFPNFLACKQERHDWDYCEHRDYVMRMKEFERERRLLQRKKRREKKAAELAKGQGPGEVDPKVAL
UniProt Q9Y2A7: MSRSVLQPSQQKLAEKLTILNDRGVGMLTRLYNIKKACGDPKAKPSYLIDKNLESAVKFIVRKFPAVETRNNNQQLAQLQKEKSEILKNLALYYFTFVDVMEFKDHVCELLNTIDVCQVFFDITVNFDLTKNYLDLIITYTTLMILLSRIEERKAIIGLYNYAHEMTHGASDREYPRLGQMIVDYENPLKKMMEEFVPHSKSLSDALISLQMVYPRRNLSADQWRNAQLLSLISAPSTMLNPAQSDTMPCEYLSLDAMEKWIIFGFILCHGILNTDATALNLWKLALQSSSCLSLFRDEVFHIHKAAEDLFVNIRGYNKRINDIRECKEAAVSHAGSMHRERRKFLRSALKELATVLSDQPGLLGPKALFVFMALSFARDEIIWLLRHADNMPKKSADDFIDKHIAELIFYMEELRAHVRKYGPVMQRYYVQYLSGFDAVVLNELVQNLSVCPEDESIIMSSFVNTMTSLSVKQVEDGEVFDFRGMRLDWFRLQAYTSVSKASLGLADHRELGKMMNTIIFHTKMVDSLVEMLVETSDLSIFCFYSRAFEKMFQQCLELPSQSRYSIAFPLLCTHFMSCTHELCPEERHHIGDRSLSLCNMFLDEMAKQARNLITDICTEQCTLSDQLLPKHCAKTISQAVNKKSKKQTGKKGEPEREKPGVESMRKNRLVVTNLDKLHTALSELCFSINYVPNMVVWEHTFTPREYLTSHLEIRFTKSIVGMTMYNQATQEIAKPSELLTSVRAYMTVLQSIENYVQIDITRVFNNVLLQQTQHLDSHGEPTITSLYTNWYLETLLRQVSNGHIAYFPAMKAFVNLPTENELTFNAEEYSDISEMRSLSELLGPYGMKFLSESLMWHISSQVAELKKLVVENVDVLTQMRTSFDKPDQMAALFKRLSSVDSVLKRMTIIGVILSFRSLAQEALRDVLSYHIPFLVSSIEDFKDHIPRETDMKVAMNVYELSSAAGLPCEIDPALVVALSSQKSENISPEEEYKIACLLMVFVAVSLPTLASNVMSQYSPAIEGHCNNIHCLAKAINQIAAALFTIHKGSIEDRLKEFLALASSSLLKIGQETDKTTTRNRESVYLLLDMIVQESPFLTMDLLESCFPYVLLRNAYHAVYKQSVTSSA

sotrastaurin = compound: CN1CCN(c2nc(C3=C(c4c[nH]c5ccccc45)C(=O)NC3=O)c3ccccc3n2)CC1 [sotrastaurin]
Method in brief: as §1

alvocidib = compound: CN1CC[C@H](c2c(O)cc(O)c3c(=O)cc(-c4ccccc4Cl)oc23)[C@H](O)C1 [alvocidib]
Method in brief: as §1

Tubastatin A = compound: CN1CCc2c(c3ccccc3n2Cc2ccc(C(=O)NO)cc2)C1 [Tubastatin A]
Method in brief: as §1

[1] = compound: CNC(=O)C1=CC=CC=C1NC2=NC(=NC=C2Cl)NC3=C(C=C(C=C3)N4CCOCC4)OC
Method in brief: as §1

defactinib = compound: CNC(=O)c1ccc(Nc2ncc(C(F)(F)F)c(NCc3nccnc3N(C)S(C)(=O)=O)n2)cc1 [defactinib]
Method in brief: as §1

rucaparib = compound: CNCc1ccc(-c2[nH]c3cc(F)cc4c3c2CCNC4=O)cc1 [rucaparib]
Method in brief: as §1

[2] = compound: CNc1nc(-c2ccc3c(N)n[nH]c3c2)cc(N2C[C@@H](C(=O)NC3CCCCC3)CC[C@H]2C)n1
Method in brief: as §1

encorafenib = compound: COC(=O)N[C@@H](C)CNc1nccc(-c2cn(C(C)C)nc2-c2cc(Cl)cc(NS(C)(=O)=O)c2F)n1 [encorafenib]
Method in brief: as §1

[3] = compound: COC(=O)[C@H](CCSC)NC(=O)C1=C(C=C(C=C1)NC[C@H](CS)N)C2=CC=CC=C2
Method in brief: as §1

Measured: log2 fold change

NAGA (UniProt P17050)
inactive: saracatinib -0.021 | sotrastaurin 0.02 | alvocidib 0.01 | Tubastatin A -0.036 | [1] -0.062 | defactinib 0.014 | rucaparib -0.004 | [2] -0.051 | encorafenib -0.026 | [3] 0.041

NACA (UniProt E9PAV3)
inactive: saracatinib 0.077 | sotrastaurin -0.004 | alvocidib 0.086 | Tubastatin A -0.003 | [1] -0.033 | defactinib -0.001 | rucaparib 0.003 | [2] -0.014 | encorafenib -0.006 | [3] 0.056

NANS (UniProt Q9NR45)
inactive: saracatinib 0.022 | sotrastaurin -0.058 | Tubastatin A -0.026 | [1] 0.034 | defactinib -0.033 | rucaparib -0.084 | [2] 0.051 | encorafenib 0.004 | [3] -0.015

NBAS (UniProt A2RRP1)
inactive: saracatinib -0.169 | sotrastaurin -0.193 | alvocidib 0.146 | Tubastatin A 0.148 | [1] 0.008 | defactinib 0.109 | rucaparib 0.448 | [2] 0.053 | encorafenib 0.304 | [3] -0.175

NDRG3 (UniProt Q9UGV2)
inactive: saracatinib 0.042 | sotrastaurin -0.059 | alvocidib -0.005 | Tubastatin A 0.001 | [1] 0.054 | defactinib -0.027 | rucaparib -0.161 | [2] 0.015 | encorafenib 0.032 | [3] 0.059

NDUFV3 (UniProt P56181)
inactive: saracatinib -0.255 | sotrastaurin 0.035 | alvocidib -0.122 | Tubastatin A 0.012 | [1] 0.147 | defactinib 0.024 | rucaparib -0.062 | [2] -0.102 | encorafenib -0.008 | [3] -0.035

NDUFB4 (UniProt O95168)
inactive: saracatinib 0.036 | sotrastaurin -0.012 | alvocidib -0.012 | Tubastatin A 0.019 | [1] 0.054 | defactinib 0 | rucaparib 0.063 | [2] -0.023 | encorafenib -0.068 | [3] 0.033

NCAPG (UniProt Q9BPX3)
inactive: saracatinib -0.077 | sotrastaurin -0.122 | Tubastatin A 0.026 | [1] 0.106 | defactinib -0.067 | rucaparib 0.078 | [2] -0.004 | encorafenib 0.093 | [3] -0.039

MZT2B (UniProt Q6NZ67)
inactive: saracatinib 0 | sotrastaurin 0.042 | alvocidib -0.038 | Tubastatin A 0.121 | [1] -0.076 | defactinib -0.065 | [2] 0.002 | [3] 0.026

NASP (UniProt P49321)
inactive: saracatinib 0 | sotrastaurin -0.045 | Tubastatin A 0.012 | [1] 0.073 | defactinib -0.085 | rucaparib -0.11 | [2] -0.041 | encorafenib 0.001 | [3] -0.004

NDUFA7 (UniProt O95182)
inactive: saracatinib -0.037 | sotrastaurin 0.047 | Tubastatin A -0.148 | [1] -0.042 | defactinib 0 | rucaparib 0.046 | [2] -0.031 | encorafenib -0.042 | [3] -0.008

NDUFV1 (UniProt P49821)
inactive: saracatinib -0.006 | sotrastaurin 0.006 | alvocidib -0.056 | Tubastatin A -0.063 | [1] -0.024 | defactinib -0.005 | rucaparib -0.008 | [2] -0.015 | encorafenib -0.024 | [3] 0.009

NDUFA2 (UniProt O43678)
inactive: saracatinib -0.014 | sotrastaurin 0.005 | alvocidib -0.041 | Tubastatin A -0.006 | [1] 0.006 | defactinib -0.034 | rucaparib 0.012 | [2] 0.09 | encorafenib -0.058 | [3] -0.048

NEDD4L (UniProt Q96PU5)
inactive: saracatinib -0.014 | sotrastaurin -0.063 | Tubastatin A 0.057 | [1] 0.068 | defactinib -0.135 | rucaparib 0.002 | [2] -0.059 | encorafenib 0.03 | [3] -0.023

NECAP2 (UniProt Q9NVZ3)
inactive: saracatinib 0.058 | sotrastaurin -0.033 | alvocidib -0.038 | Tubastatin A 0.021 | [1] -0.033 | defactinib -0.041 | rucaparib -0.023 | [2] 0.025 | encorafenib 0.017 | [3] 0.012

NCL (UniProt P19338)
inactive: saracatinib -0.111 | sotrastaurin 0.013 | Tubastatin A 0.148 | [1] -0.001 | defactinib 0.354 | rucaparib 0.387 | [2] 0.137 | encorafenib 0.257 | [3] -0.01

NDUFS7 (UniProt O75251)
inactive: saracatinib -0.047 | sotrastaurin 0.014 | Tubastatin A -0.001 | [1] -0.038 | defactinib -0.016 | rucaparib -0.004 | [2] -0.048 | encorafenib 0.024 | [3] 0.002

NDUFAF6 (UniProt Q330K2)
inactive: saracatinib -0.071 | sotrastaurin -0.112 | Tubastatin A -0.101 | [1] 0.038 | defactinib -0.04 | rucaparib -0.108 | [2] -0.146 | encorafenib 0.081 | [3] 0.084

NDUFS4 (UniProt O43181)
inactive: saracatinib 0.117 | sotrastaurin 0.1 | Tubastatin A -0.082 | [1] -0.025 | defactinib 0.035 | rucaparib 0.011 | [2] -0.074 | encorafenib -0.051 | [3] 0.079

NAT14 (UniProt Q8WUY8)
inactive: saracatinib -0.054 | sotrastaurin 0.068 | Tubastatin A -0.02 | [1] 0 | defactinib -0.235 | rucaparib -0.002 | [2] -0.005 | encorafenib 0.002 | [3] 0.163

NCOA5 (UniProt Q9HCD5)
inactive: saracatinib 0.002 | sotrastaurin 0.188 | [1] -0.081 | [2] -0.04

NAPG (UniProt Q99747)
inactive: saracatinib -0.028 | sotrastaurin -0.075 | Tubastatin A 0.048 | [1] 0.031 | defactinib -0.159 | rucaparib 0.044 | [2] 0.053 | encorafenib 0.052 | [3] -0.028

NDUFA6 (UniProt P56556)
inactive: saracatinib -0.037 | sotrastaurin 0.003 | Tubastatin A 0.021 | [1] -0.039 | defactinib -0.068 | rucaparib 0.006 | [2] 0.044 | encorafenib 0.034 | [3] -0.039

NAP1L4 (UniProt C9J6D1)
inactive: saracatinib -0.113 | sotrastaurin 0.021 | [2] -0.065

NCOA7 (UniProt Q8NI08)
inactive: saracatinib -0.05 | sotrastaurin -0.074 | Tubastatin A -0.02 | [1] -0.011 | defactinib -0.099 | rucaparib -0.029 | [2] -0.064 | encorafenib 0.019 | [3] 0.039

NCAPD2 (UniProt Q15021)
inactive: saracatinib -0.052 | sotrastaurin -0.145 | Tubastatin A 0.012 | [1] 0.111 | defactinib -0.052 | rucaparib 0.142 | [2] 0.008 | encorafenib 0.11 | [3] -0.025

NDUFB7 (UniProt P17568)
inactive: saracatinib 0.046 | sotrastaurin -0.014 | Tubastatin A 0.016 | [1] 0.021 | defactinib -0.015 | rucaparib -0.021 | [2] -0.011 | encorafenib -0.032 | [3] 0.029

NACC1 (UniProt Q96RE7)
inactive: saracatinib -0.055 | sotrastaurin -0.141 | Tubastatin A 0.034 | [1] -0.063 | defactinib -0.312 | rucaparib 0.01 | [2] -0.006 | encorafenib 0.13 | [3] -0.021

NBN (UniProt O60934)
inactive: saracatinib -0.008 | sotrastaurin -0.03 | Tubastatin A 0.191 | [1] -0.065 | defactinib -0.159 | rucaparib 0.006 | [2] 0.049 | encorafenib 0.003 | [3] -0.019

NCKAP1 isoform 2 (UniProt Q9Y2A7)
inactive: saracatinib 0.02 | sotrastaurin -0.031 | Tubastatin A 0.027 | [1] 0.006 | defactinib -0.071 | rucaparib -0.022 | [2] 0.019 | encorafenib 0 | [3] -0.007

NA isoform 3 (UniProt Q4G0T1)
inactive: saracatinib -0.011 | sotrastaurin 0.035 | Tubastatin A 0.04 | [1] 0.007 | defactinib 0.034 | [2] -0.053 | [3] -0.001

NEDD4 isoform 4 (UniProt P46934)
inactive: saracatinib 0.116 | sotrastaurin -0.026 | Tubastatin A 0.037 | [1] 0.041 | defactinib -0.108 | rucaparib -0.099 | [2] -0.026 | encorafenib 0.049 | [3] -0.009

NECTIN2 (UniProt Q92692)
inactive: saracatinib 0.021 | sotrastaurin 0.047 | Tubastatin A -0.013 | [1] -0.056 | defactinib -0.013 | rucaparib -0.051 | [2] 0.049 | encorafenib -0.024 | [3] 0.063

Two consecutive entries out of the list so far:
NDUFS4 (UniProt O43181)
inactive: saracatinib 0.117 | sotrastaurin 0.1 | Tubastatin A -0.082 | [1] -0.025 | defactinib 0.035 | rucaparib 0.011 | [2] -0.074 | encorafenib -0.051 | [3] 0.079

NAT14 (UniProt Q8WUY8)
inactive: saracatinib -0.054 | sotrastaurin 0.068 | Tubastatin A -0.02 | [1] 0 | defactinib -0.235 | rucaparib -0.002 | [2] -0.005 | encorafenib 0.002 | [3] 0.163

Source: the supplement of paper PMC10849652
